# The name of at least one read-out is uncertain.
# Experiment: inclusion complex formation with the cyclodextrin of example 1 in aqueous medium
# Type: physicochemical
# Settings: with the cyclodextrin in example 1
smiles,measurement,value
CC(CCCCCCCCCCCCCI)CC(=O)O (stereo not shown) [16-iodo-3-methylhexadecanoic acid],inclusion complex formation / solubilisation in aqueous medium,solubilised in an aqueous medium by forming an inclusion complex
